Laboratory results: PubChem BioAssay AID1259254 (NCATS, 2017)
Purpose: 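Genome-wide screen for genes that prevent DNA re-replication in cancer cells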 (primary screen). System: human HCT116 colorectal cancer cells. Reagent: single siRNA against human genes. Duration: 3 days. Read-out: 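Nuclei stained with Hoechst and imaged; cell-cycle phase assigned by DNA content; G2 share scaled per plate, non-targeting siRNA 0%, GMNN siRNA 100%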. Reading the numbers: G2 robust z-score and G2 cells, % of GMNN control: higher = more G2 cells, more excess DNA replication; raw share of cells in G2: higher = larger share of cells with G2 DNA content. Hit rule: 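An siRNA counts as active if its G2 robust z-score lies at least 5 MADs above the screen median; here such calls match roughly 38% of GMNN control or more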.
The whole screen tested about 59,000 reagents; this is a random part of them. Over the whole deposit, about 1,550 (2.6%) are marked active. 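G2 share is only a proxy for re-replication; each gene was hit by three separate siRNAs, and active genes were retested.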 The raw values are shown without normalisation. The numbers tell different reagents against one gene apart. Not stated in the record: the amount of reagent.

gene knocked down | reagent no. | G2 robust z-score | G2 cells, % of GMNN control | raw share of cells in G2 (%) | Call
MED13L (mediator complex subunit 13L) | 1 | -0.725 | -2.14 | 3.61 | inactive
MED13L (mediator complex subunit 13L) | 2 | -0.416 | 0.0388 | 3.96 | inactive
MED13L (mediator complex subunit 13L) | 3 | 1.09 | 10.7 | 7.02 | inactive
ZNF620 (zinc finger protein 620) | 1 | 0.889 | 9.23 | 6.26 | inactive
ZNF620 (zinc finger protein 620) | 2 | 0.583 | 7.07 | 5.62 | inactive
ZNF620 (zinc finger protein 620) | 3 | -0.277 | 1.02 | 3.88 | inactive
MECR (mitochondrial trans-2-enoyl-CoA reductase) | 1 | 0.0187 | 3.1 | 4.99 | inactive
MECR (mitochondrial trans-2-enoyl-CoA reductase) | 2 | -1.14 | -5.06 | 3.66 | inactive
MECR (mitochondrial trans-2-enoyl-CoA reductase) | 3 | -0.652 | -1.62 | 3.64 | inactive
ILRUN | 1 | 0.416 | 5.89 | 7.15 | inactive
ILRUN | 2 | 1.12 | 10.9 | 9.48 | inactive
ILRUN | 3 | -0.552 | -0.914 | 2.46 | inactive
CALHM6 (calcium homeostasis modulator family member 6) | 1 | 2.22 | 18.6 | 10.8 | inactive
CALHM6 (calcium homeostasis modulator family member 6) | 2 | -0.116 | 2.15 | 4.23 | inactive
CALHM6 (calcium homeostasis modulator family member 6) | 3 | 1.7 | 14.9 | 8.2 | inactive
SUMF1 (sulfatase modifying factor 1) | 1 | 0.949 | 9.64 | 7.16 | inactive
SUMF1 (sulfatase modifying factor 1) | 2 | -0.404 | 0.126 | 3.09 | inactive
SUMF1 (sulfatase modifying factor 1) | 3 | 1.09 | 10.7 | 6.51 | inactive
ADISSP (adipose secreted signaling protein) | 1 | -0.238 | 1.29 | 4.07 | inactive
ADISSP (adipose secreted signaling protein) | 2 | -0.337 | 0.598 | 4.52 | inactive
ADISSP (adipose secreted signaling protein) | 3 | -0.725 | -2.13 | 2.49 | inactive
SEC14L1 (SEC14 like lipid binding 1) | 1 | 3.66 | 28.7 | 17.2 | inactive
SEC14L1 (SEC14 like lipid binding 1) | 2 | -0.254 | 1.18 | 4.69 | inactive
SEC14L1 (SEC14 like lipid binding 1) | 3 | 0.204 | 4.4 | 4.94 | inactive
SSRP1 (structure specific recognition protein 1) | 1 | 9.32 | 68.6 | 28.8 | active
SSRP1 (structure specific recognition protein 1) | 2 | 3.3 | 26.2 | 13.5 | inactive
SSRP1 (structure specific recognition protein 1) | 3 | -0.899 | -3.36 | 2.85 | inactive
MOV10 (Mov10 RNA helicase) | 1 | -0.35 | 0.507 | 3.36 | inactive
MOV10 (Mov10 RNA helicase) | 2 | -0.0377 | 2.7 | 6.54 | inactive
MOV10 (Mov10 RNA helicase) | 3 | 7.41 | 55.1 | 26.7 | active
MLLT10 (MLLT10 histone lysine methyltransferase DOT1L cofactor) | 1 | 2.78 | 22.5 | 12.6 | inactive
MLLT10 (MLLT10 histone lysine methyltransferase DOT1L cofactor) | 2 | 0.143 | 3.97 | 7.28 | inactive
MLLT10 (MLLT10 histone lysine methyltransferase DOT1L cofactor) | 3 | -0.89 | -3.3 | 3.39 | inactive
HSPB8 (heat shock protein family B (small) member 8) | 1 | 2.55 | 20.9 | 10.2 | inactive
HSPB8 (heat shock protein family B (small) member 8) | 2 | 1.97 | 16.8 | 13.5 | inactive
HSPB8 (heat shock protein family B (small) member 8) | 3 | 0.0605 | 3.39 | 4.7 | inactive
DCAF17 (DDB1 and CUL4 associated factor 17) | 1 | 1.9 | 16.4 | 11.2 | inactive
DCAF17 (DDB1 and CUL4 associated factor 17) | 2 | 1.53 | 13.7 | 10.3 | inactive
DCAF17 (DDB1 and CUL4 associated factor 17) | 3 | -0.295 | 0.892 | 2.62 | inactive
WFDC10B (WAP four-disulfide core domain 10B) | 1 | 0.136 | 3.92 | 4.46 | inactive
WFDC10B (WAP four-disulfide core domain 10B) | 2 | 0.154 | 4.05 | 5.12 | inactive
WFDC10B (WAP four-disulfide core domain 10B) | 3 | -0.492 | -0.492 | 2.85 | inactive
SLC25A48 | 1 | 0.402 | 5.79 | 5.77 | inactive
SLC25A48 | 2 | -0.386 | 0.25 | 2.99 | inactive
SLC25A48 | 3 | -0.383 | 0.274 | 3.16 | inactive
TLR3 (toll like receptor 3) | 1 | 0.00737 | 3.02 | 5.55 | inactive
TLR3 (toll like receptor 3) | 2 | 0.589 | 7.11 | 7.19 | inactive
TLR3 (toll like receptor 3) | 3 | -0.964 | -3.82 | 3.9 | inactive
ASB9P1 (ankyrin repeat and SOCS box containing 9 pseudogene 1) | 1 | -0.0639 | 2.52 | 4.89 | inactive
ASB9P1 (ankyrin repeat and SOCS box containing 9 pseudogene 1) | 2 | 0.666 | 7.66 | 5.79 | inactive
ASB9P1 (ankyrin repeat and SOCS box containing 9 pseudogene 1) | 3 | -0.262 | 1.12 | 3.54 | inactive
EFNB2 (ephrin B2) | 1 | -0.76 | -2.38 | 4.18 | inactive
EFNB2 (ephrin B2) | 2 | 1.04 | 10.3 | 7.86 | inactive
EFNB2 (ephrin B2) | 3 | -0.621 | -1.4 | 2.97 | inactive
FLAD1 (flavin adenine dinucleotide synthetase 1) | 1 | 2.63 | 21.5 | 14.4 | inactive
FLAD1 (flavin adenine dinucleotide synthetase 1) | 2 | 0.0616 | 3.4 | 5.43 | inactive
FLAD1 (flavin adenine dinucleotide synthetase 1) | 3 | -0.937 | -3.63 | 3.44 | inactive
ZG16 (zymogen granule protein 16) | 1 | -0.968 | -3.84 | 2.55 | inactive
ZG16 (zymogen granule protein 16) | 2 | 0.384 | 5.67 | 5.02 | inactive
ZG16 (zymogen granule protein 16) | 3 | 4.17 | 32.3 | 11.3 | inactive
ZG16 (zymogen granule protein 16) | 4 | -0.0116 | 2.89 | 4.58 | inactive
ZG16 (zymogen granule protein 16) | 5 | -0.491 | -0.485 | 3 | inactive
ZG16 (zymogen granule protein 16) | 6 | -0.637 | -1.51 | 2.33 | inactive
ARHGAP9 (Rho GTPase activating protein 9) | 1 | 0.796 | 8.57 | 9.2 | inactive
ARHGAP9 (Rho GTPase activating protein 9) | 2 | -0.731 | -2.18 | 3.58 | inactive
ARHGAP9 (Rho GTPase activating protein 9) | 3 | 0.267 | 4.85 | 5.99 | inactive
JMJD6 | 1 | 0.239 | 4.65 | 5.46 | inactive
JMJD6 | 2 | 0.11 | 3.74 | 7.87 | inactive
JMJD6 | 3 | -0.776 | -2.49 | 3.32 | inactive
DHRS7B (dehydrogenase/reductase 7B) | 1 | -0.511 | -0.63 | 3.98 | inactive
DHRS7B (dehydrogenase/reductase 7B) | 2 | -1.17 | -5.28 | 2.26 | inactive
DHRS7B (dehydrogenase/reductase 7B) | 3 | 2.24 | 18.7 | 14.7 | inactive
ARSL (arylsulfatase L) | 1 | 1.16 | 11.1 | 8.5 | inactive
ARSL (arylsulfatase L) | 2 | 0.287 | 4.99 | 6.85 | inactive
ARSL (arylsulfatase L) | 3 | -0.439 | -0.122 | 3.95 | inactive
SYTL5 (synaptotagmin like 5) | 1 | 0.71 | 7.96 | 5.83 | inactive
SYTL5 (synaptotagmin like 5) | 2 | 0.808 | 8.65 | 6.17 | inactive
SYTL5 (synaptotagmin like 5) | 3 | 2.88 | 23.3 | 11.7 | inactive
ABCA2 (ATP binding cassette subfamily A member 2) | 1 | -0.451 | -0.204 | 4.65 | inactive
ABCA2 (ATP binding cassette subfamily A member 2) | 2 | 2.6 | 21.3 | 12.6 | inactive
ABCA2 (ATP binding cassette subfamily A member 2) | 3 | 0.794 | 8.56 | 7.18 | inactive
GDF3 (growth differentiation factor 3) | 1 | 2.38 | 19.7 | 14.3 | inactive
GDF3 (growth differentiation factor 3) | 2 | -0.333 | 0.627 | 4.21 | inactive
GDF3 (growth differentiation factor 3) | 3 | 0.488 | 6.4 | 5.73 | inactive
NCOA1 (nuclear receptor coactivator 1) | 1 | 0.926 | 9.48 | 8.59 | inactive
NCOA1 (nuclear receptor coactivator 1) | 2 | -0.685 | -1.85 | 3.7 | inactive
NCOA1 (nuclear receptor coactivator 1) | 3 | -0.947 | -3.7 | 3.38 | inactive
